Data published in patent US20220242906A1.
Results are given in words; binding and its absence hold for the method and conditions named. Some entries that bind do so weakly or less than the wild type.

Amino acid sequences for entries named in this document (tags omitted). Residues count along the entry.
UniProt P06730, residues 2-217: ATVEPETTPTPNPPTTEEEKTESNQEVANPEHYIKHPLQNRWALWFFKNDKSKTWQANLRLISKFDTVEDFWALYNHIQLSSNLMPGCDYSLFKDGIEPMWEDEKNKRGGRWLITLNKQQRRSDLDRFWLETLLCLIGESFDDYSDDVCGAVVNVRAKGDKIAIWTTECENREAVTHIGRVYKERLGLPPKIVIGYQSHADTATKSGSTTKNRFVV

B1: EE-30 (…) (peptide)
peptide: ACEMGYFQDCG
modifications: free N-terminal amine; C-terminal amide; disulphide bond between Cys2 and Cys10
B2: EE-9 (peptide)
peptide: ACEMGYFGNCG
modifications: C2-C10 disulphide bond (C7C constrained loop)
B3: EE-35 (…) (peptide)
peptide: ACEMGFYQDCG
modifications: free N-terminal amine; C-terminal amide; disulphide bond between Cys2 and Cys10
B4: Peptide 45 (peptide)
peptide: ACIHSPTSLCG
modifications: C2-C10 disulphide bond (C7C constrained loop)
B5: PHAGESOL (…) (peptide)
peptide: KKRYSRDQLVAL

Experiments:
[1] = target: elongation initiation factor 4E (eIF4E) (UniProt P06730); assay: SPR
[2] = target: elongation initiation factor 4E (eIF4E) (UniProt P06730); assay: NGS-enhanced phage display: C7C peptide on M13 pIII selected on immobilised biotinylated eIF4E, three replicate selections, enrichment against control selections on MDM2 and eIF4A
[3] = target: elongation initiation factor 4E (eIF4E) (UniProt P06730); assay: tryptophan quenching of eIF4E (1 uM eIF4E, 0.01-20 uM peptide)
[4] = target: elongation initiation factor 4E (eIF4E) (UniProt P06730); assay: tryptophan quenching of eIF4E (1 µM), excitation 290 nm, emission 355 nm
[5] = target: elongation initiation factor 4E (eIF4E) (UniProt P06730); assay: competitive fluorescence anisotropy, panel 'Peptide Interaction Site': displacement of the FAM labelled tracer peptide …-(FAM) (50 nM) from eIF4E (200 nM) [cont'd) B]

Binder | binding [1] | binding [2] | also measured
B1 | binds |  | 
B2 |  | binds | 
B3 | binds |  | 
B4 |  | binds | 
B5 |  |  | binding [3]: binds; binding [4]: binds; binding [5]: binds
